The results in this text go back to PMC5058671.

Chains of the proteins cited; added tags and fusions are not shown.
UniProt Q9WVA3: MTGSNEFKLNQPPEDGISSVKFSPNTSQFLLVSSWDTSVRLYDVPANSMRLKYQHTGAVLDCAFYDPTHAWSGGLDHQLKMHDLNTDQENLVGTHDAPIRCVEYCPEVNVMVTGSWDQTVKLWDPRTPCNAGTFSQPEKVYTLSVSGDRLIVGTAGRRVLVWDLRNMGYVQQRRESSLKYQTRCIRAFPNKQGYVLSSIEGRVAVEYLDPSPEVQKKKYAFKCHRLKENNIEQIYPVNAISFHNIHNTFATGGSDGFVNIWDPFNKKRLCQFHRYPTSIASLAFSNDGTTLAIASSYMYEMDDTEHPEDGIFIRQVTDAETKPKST
UniProt Q9JMD0: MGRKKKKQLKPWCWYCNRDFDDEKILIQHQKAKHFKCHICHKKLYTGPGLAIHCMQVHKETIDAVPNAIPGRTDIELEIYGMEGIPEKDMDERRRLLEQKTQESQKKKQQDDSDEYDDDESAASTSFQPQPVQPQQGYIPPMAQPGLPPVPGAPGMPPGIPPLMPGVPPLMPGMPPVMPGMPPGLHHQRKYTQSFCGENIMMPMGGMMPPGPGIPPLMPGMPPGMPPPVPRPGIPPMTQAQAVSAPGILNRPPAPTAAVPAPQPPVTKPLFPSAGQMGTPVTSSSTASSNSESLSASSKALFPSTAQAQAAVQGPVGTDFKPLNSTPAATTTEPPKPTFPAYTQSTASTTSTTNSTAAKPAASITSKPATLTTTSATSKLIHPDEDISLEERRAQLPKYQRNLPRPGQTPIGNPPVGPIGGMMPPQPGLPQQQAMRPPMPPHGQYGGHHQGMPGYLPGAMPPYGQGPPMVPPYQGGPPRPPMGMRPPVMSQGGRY

Results are given in words; binding and its absence hold for the method and conditions named. In cells and extracts the contact can be indirect. Some binding calls cover weakened binding; strength is not graded here.

For the assay, the target named is Bub3 (mouse (endogenous in mouse oocytes)) (UniProt Q9WVA3). The experiment in a line: co-IP; mouse oocyte lysates incubated with anti-Bub3 antibody or IgG, then protein G beads; ProFound Mammalian Co-Immunoprecipitation Kit; eluates blotted with anti-Zfp207 and anti-Bub3.

As for Zfp207 (from UniProt Q9JMD0 1-495), the binding result is “binds”.
